These are yes or no findings as the source states them, for the method shown. In cells and extracts the contact can be indirect. Binding can be weak; no strength is given. Sequences can lack the tags named with a protein.
Molecular target: Escherichia coli cellulose synthase BcsA (Escherichia coli) (UniProt P37653)
Experiment: cryo-EM structure; reprocessing of the previously published cryo-EM data (EMD-23267) of the co-expressed, co-purified Ec inner membrane-associated Bcs complex, focused on BcsA-BcsG; ~5.7 Å; AlphaFold2 model docked as rigid bodies; both purified

Chains of the proteins cited; added tags and fusions are not shown. Lines headed by an entry give the natural chain unless they say otherwise; changes in a name come on top.
UniProt P37653: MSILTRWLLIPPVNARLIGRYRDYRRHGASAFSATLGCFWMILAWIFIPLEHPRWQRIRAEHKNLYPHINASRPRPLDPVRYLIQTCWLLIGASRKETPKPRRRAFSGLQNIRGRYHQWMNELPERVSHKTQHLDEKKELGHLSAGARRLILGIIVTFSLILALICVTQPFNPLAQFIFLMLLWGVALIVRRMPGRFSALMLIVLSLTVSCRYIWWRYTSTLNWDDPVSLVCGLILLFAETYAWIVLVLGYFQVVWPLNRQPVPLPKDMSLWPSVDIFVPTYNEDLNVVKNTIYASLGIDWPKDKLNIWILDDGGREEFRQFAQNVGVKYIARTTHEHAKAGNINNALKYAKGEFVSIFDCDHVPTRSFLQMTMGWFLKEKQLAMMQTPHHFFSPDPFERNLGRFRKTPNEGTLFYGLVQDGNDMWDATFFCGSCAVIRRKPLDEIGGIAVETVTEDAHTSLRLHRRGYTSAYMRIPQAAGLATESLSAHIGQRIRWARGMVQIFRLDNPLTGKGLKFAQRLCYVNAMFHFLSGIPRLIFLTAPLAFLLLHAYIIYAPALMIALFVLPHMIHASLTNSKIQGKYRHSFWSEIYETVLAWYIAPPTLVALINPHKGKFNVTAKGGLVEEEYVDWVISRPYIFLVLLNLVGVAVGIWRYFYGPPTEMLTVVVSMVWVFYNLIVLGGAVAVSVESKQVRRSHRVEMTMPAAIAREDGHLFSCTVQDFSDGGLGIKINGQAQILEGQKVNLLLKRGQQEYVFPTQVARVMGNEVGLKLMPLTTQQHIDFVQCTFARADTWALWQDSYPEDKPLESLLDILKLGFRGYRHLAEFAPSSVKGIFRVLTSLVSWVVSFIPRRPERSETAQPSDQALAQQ

B1: Escherichia coli pEtN transferase BcsG, FLAG-tagged (enzyme, UniProt P37659 1-559, looked up)
chain: MTQFTQNTAMPSSLWQYWRGLSGWNFYFLVKFGLLWAGYLNFHPLLNLVFAAFLLMPLPRYSLHRLRHWIALPIGFALFWHDTWLPGPESIMSQGSQVAGFSTDYLIDLVTRFINWQMIGAIFVLLVAWLFLSQWIRITVFVVAILLWLNVLTLAGPSFSLWPAGQPTTTVTTTGGNAAATVAATGGAPVVGDMPAQTAPPTTANLNAWLNNFYNAEAKRKSTFPSSLPADAQPFELLVINICSLSWSDIEAAGLMSHPLWSHFDIEFKNFNSATSYSGPAAIRLLRASCGQTSHTNLYQPANNDCYLFDNLSKLGFTQHLMMGHNGQFGGFLKEVRENGGMQSELMDQTNLPVILLGFDGSPVYDDTAVLNRWLDVTEKDKNSRSATFYNTLPLHDGNHYPGVSKTADYKARAQKFFDELDAFFTELEKSGRKVMVVVVPEHGGALKGDRMQVSGLRDIPSPSITDVPVGVKFFGMKAPHQGAPIVIEQPSSFLAISDLVVRVLDGKIFTEDNVDWKKLTSGLPQTAPVSENSNAVVIQYQDKPYVRLNGGDWVPYPQ
notes: present as the full-length enzyme in the analysed sample; End of the FLAG tag read from the plasmid's name (G-FLAG); also called Ec BcsG; source: E. coli C43 (DE3), co-expressed with the other Bcs components or with the BcsA chimera, Rs BcsB and BcsF; co-purified; not shown: FLAG, C-terminal, kept
- binding: binds
